Structures can show the parent of a compound that is named as a salt. The list shows a part of the results. Most values come without repeats; read them as rough.
Columns and labels:
Test in all cases: reduction in cell viability relative to untreated/vehicle; higher = more growth inhibition
Settings in all cases: 200 nM; 72 h
[1] = tested on: M229P (parental melanoma line)
[2] = tested on: M229R (matched melanoma line resistant to BRAF inhibitors)
[3] = tested on: M238P (parental melanoma line)
[4] = tested on: M238R (matched melanoma line resistant to BRAF inhibitors)
[5] = tested on: M249P (parental melanoma line)
[6] = tested on: M249R (matched melanoma line resistant to BRAF inhibitors)
[7] = tested on: UACC62P (parental melanoma line)
[8] = tested on: UACC62R (matched melanoma line resistant to BRAF inhibitors)

Structure (SMILES)	reduction in cell viability [1] [%]	reduction in cell viability [2] [%]	reduction in cell viability [3] [%]	reduction in cell viability [4] [%]	reduction in cell viability [5] [%]	reduction in cell viability [6] [%]	reduction in cell viability [7] [%]	reduction in cell viability [8] [%]
CCCCCCCN(CC)CCCC(O)c1ccc(NS(C)(=O)=O)cc1 (stereo not given) [Ibutilide fumarate]	< 0	< 0	< 0	< 0	< 0	< 0	< 0	< 0
O=C(O)c1ccc2c(c1)nc(Nc1cccc(Cl)c1)c1ccncc12 [Silmitasertib]	< 0	< 0	< 0	< 0	< 0	6.69	2.55	< 0
NC[C@H](O)c1ccc(O)c(O)c1 [Noradrenaline bitartrate monohydrate]	< 0	< 0	< 0	< 0	< 0	3.21	< 0	< 0
CN1CCN(c2c(F)cc3c(=O)c(C(=O)O)cn4c3c2OCN4C)CC1 [Marbofloxacin]	< 0	< 0	< 0	< 0	< 0	< 0	< 0	< 0
O=C(NOCC1CC1)c1ccc(F)c(F)c1Nc1ccc(I)cc1Cl	6.03	< 0	24.1	< 0	13.2	< 0	58.4	10.1
CN(C1CCc2c(c3ccccc3n2CC(=O)O)C1)S(=O)(=O)c1ccc(F)cc1 (stereo not given)	< 0	< 0	< 0	< 0	< 0	10.1	< 0	< 0
O=C(O)C(O)Cc1ccc(O)c(O)c1 (stereo not given) [Sodium Danshensu]	< 0	< 0	< 0	< 0	< 0	< 0	23.6	< 0
COc1cc(O)c2c(c1)C(=O)c1c(O)c(C)cc(O)c1C2=O [Parietin]	< 0	< 0	< 0	< 0	< 0	< 0	< 0	< 0
COc1cc(CCc2cc(NC(=O)c3ccc(N4CC(C)NC(C)C4)cc3)n[nH]2)cc(OC)c1 (stereo not given)	< 0	< 0	< 0	< 0	< 0	< 0	< 0	< 0
O=S(=O)(c1cccc2cnccc12)N1CCCNCC1 [Fasudil hydrochloride]	< 0	< 0	< 0	< 0	< 0	< 0	< 0	< 0
Cc1nc(C(=O)NCC(=O)O)c(O)c2ccc(Oc3ccccc3)cc12 [Roxadustat (FG-4592)]	< 0	4.41	< 0	< 0	< 0	< 0	< 0	< 0
C=CC[N+]1([C@H]2C[C@H]3[C@@H]4CC[C@H]5C[C@H](O)[C@@H](N6CCOCC6)C[C@]5(C)[C@H]4CC[C@]3(C)[C@H]2OC(C)=O)CCCC1 [Rocuronium bromide]	< 0	< 0	< 0	< 0	< 0	< 0	< 0	< 0
Cc1ccc(C(=O)Nc2ccc(CN3CCN(C)CC3)c(C(F)(F)F)c2)cc1C#Cc1cnc2cccnn12	29.7	0.24	56.1	7.12	19.2	36.9	36.9	< 0
Cc1ccc(F)c(NC(=O)Nc2ccc(-c3cccc4[nH]nc(N)c34)cc2)c1 [Linifanib]	< 0	< 0	< 0	< 0	< 0	< 0	< 0	< 0
Cc1c2oc3c(C)ccc(C(=O)N[C@@H]4C(=O)N[C@H](C(C)C)C(=O)N5CCC[C@H]5C(=O)N(C)CC(=O)N(C)[C@@H](C(C)C)C(=O)O[C@@H]4C)c3nc-2c(C(=O)N[C@@H]2C(=O)N[C@H](C(C)C)C(=O)N3CCC[C@H]3C(=O)N(C)CC(=O)N(C)[C@@H](C(C)C)C(=O)O[C@@H]2C)c(N)c1=O [Actinomycin D]	79.6	69.7	77.8	63.5	86.1	83.1	75.9	83
c1ccc2c(Oc3nc(Nc4ccc(N5CCOCC5)cc4)c4ncn(C5CCCCC5)c4n3)cccc2c1 [purmorphamine]	< 0	< 0	14.6	5.73	< 0	< 0	10.9	< 0
O=C(O)c1cn(C2CC2)c2cc(N3CCNCC3)c(F)cc2c1=O [Ciprofloxacin]	< 0	< 0	< 0	< 0	< 0	< 0	< 0	< 0
CC(C)(C)[N+]([O-])=Cc1ccc(S(=O)(=O)O)cc1S(=O)(=O)O [Disufenton sodium]	< 0	< 0	< 0	< 0	< 0	< 0	< 0	< 0
CNC(=O)c1ccccc1Sc1ccc2c(/C=C/c3ccccn3)n[nH]c2c1 [Axitinib]	< 0	< 0	< 0	< 0	< 0	< 0	< 0	< 0
Cc1ccnc2c1NC(=O)c1cccnc1N2C1CC1 [Nevirapine]	< 0	< 0	< 0	< 0	< 0	< 0	< 0	< 0

From the supplement of paper PMC9015667
